Assay results taken from PubChem BioAssay AID2517 (National Center for Advancing Translational Sciences (NCATS), 2010).
Out of some 350,000 compounds screened, about 1,200 (0.34%) were called active. The shares of active, inactive and inconclusive entries below differ from those in the screen. Calls come from the whole dose curve; as a rule, active = well fitted inhibition curve with a large enough effect; inconclusive = small, poorly fitted or top-dose-only effect; inactive = no such curve, though single readings can be large or run the other way. Potencies of inconclusive entries are doubtful fits and often do not repeat. Where a structure was tested more than once in an assay, its records may differ in their call.

Protein sequences, listed by entry. Tags and fused reporters are not part of them.
UniProt P27695, whole entry, looked up: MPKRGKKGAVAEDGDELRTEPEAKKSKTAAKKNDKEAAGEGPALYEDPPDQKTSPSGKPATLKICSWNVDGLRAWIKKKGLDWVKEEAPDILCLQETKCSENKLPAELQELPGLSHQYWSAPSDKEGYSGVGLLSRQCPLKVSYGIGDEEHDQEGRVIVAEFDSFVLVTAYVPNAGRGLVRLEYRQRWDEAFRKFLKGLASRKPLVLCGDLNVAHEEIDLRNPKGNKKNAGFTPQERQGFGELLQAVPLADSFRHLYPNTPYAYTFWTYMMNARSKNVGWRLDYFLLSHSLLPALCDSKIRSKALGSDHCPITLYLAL

target: DNA repair nuclease/redox regulator APEX1 (Homo sapiens) (UniProt P27695); test: qHTS Assay for Inhibitors of the Human Apurinic/apyrimidinic Endonuclease 1 (APE1); conditions: recombinant APE1, TAMRA/BHQ-2 abasic DNA cleavage fluorescence; series mostly up to 65.8 µM; note: nearly all actives have a fitted effect of over 55% in size
Outline: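 0.75 nM APE1 + cpd, 15 min RT; start w/ 50 nM TAMRA/BHQ-2 THF-abasic dsDNA; kinetic fluor 525/598 nm ×3 reads @60 s; Δ(read3−read1); normalized to DMSO and NSC13755 control wells.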
Potency is the fitted concentration of half-maximal effect.

Structure (SMILES) | Potency
O=c1[nH]cnc2nc(-c3ccccc3)c(-c3ccccc3)nc12 | inactive
CC(=O)N1N=C(N)SC1c1cccc([N+](=O)[O-])c1 (stereo unspecified) | inconclusive: 44.7 µM [inhibitor, partial curve, poor fit]
O=C(Nc1ccc(N2CCOCC2)cc1Cl)C1CCN(C(=O)OCc2ccccc2)CC1 | inconclusive: 7.94 µM [inhibitor, partial curve, poor fit]
C1=CC2c3ccccc3NC(c3ccncc3)C2C1 (stereo unspecified) | inconclusive: 10 µM [inhibitor, partial curve]
CC(C)=CCC1=C(O)c2ccccc2C(=O)C1=O | inconclusive: 4.47 µM [inhibitor, single point]
O=C(CCc1ccccc1)NNC(=O)c1ccc(Br)cc1 | inconclusive: 8.91 µM [inhibitor, single point]
Fc1ccc(Nc2nc(N/N=C/c3ccco3)nc(N3CCCCC3)n2)cc1 | inconclusive: 8.91 µM [inhibitor, single point]
CN(c1ccc(OCC(=O)OCC(=O)Nc2ccccc2)cc1)S(=O)(=O)c1cccs1 | inactive
Cc1cc(C)nc(-n2ncc3c2CCCC3=O)n1 | inconclusive: 2.51 µM [inhibitor, full curve, poor fit]
CCN(CC)S(=O)(=O)c1cc(NC(=O)COC(=O)CCC(=O)c2ccc(F)cc2)ccc1C | inconclusive: 31.6 µM [inhibitor, single point]
O=C(C1Cc2ccccc2CN1C(=O)c1ccccc1)N1CCN(c2ccccc2)CC1 (stereo unspecified) | inconclusive: 39.8 µM [inhibitor, single point]
C/C(CCN1CCCc2nc(C)c(C)cc21)=N\OC[C@@H](O)COCc1ccco1 | inconclusive: 5.01 µM [inhibitor, single point]
CC(=O)Nc1ccc(-c2nnn(CC(=O)c3ccccc3)n2)cc1Cl | inconclusive: 3.16 µM [inhibitor, full curve, poor fit]
O=C(NN(C(=O)c1ccccc1)c1ccccc1)c1ccccc1 | inactive
O=S1(=O)CCN(Cc2ccc(Cl)c(C(F)(F)F)c2)CC1 | inactive
COc1cccc(NC(=O)Nc2ccccc2Br)c1 | inconclusive: 28.2 µM [inhibitor, single point]
Cc1ccc(Cn2c(O)c(N=NC(=S)Nc3ccccc3F)c3ccccc32)cc1 | inconclusive: 28.2 µM [inhibitor, partial curve]
O=C(CNC(=O)COc1ccccc1)NCCc1ccccn1 | inconclusive: 1.78 µM [inhibitor, partial curve]
O=C(CCC(=O)OCC(=O)c1ccccc1)Nc1cccc(Cl)c1 | inconclusive: 0.891 µM [inhibitor, single point]
CCn1c2ccccc2c2cc(NC(=O)c3cc(OC)cc(OC)c3)ccc21 | inconclusive: 44.7 µM [inhibitor, single point]
Clc1ccc(-c2nnc3sc(-c4ccc(Br)o4)nn23)cc1 | inactive
COC(=O)C1=C(Nc2ccc(OC)cc2)C=C(C)C(C(=O)OC)C1c1ccc(C)cc1 (stereo unspecified) | inconclusive: 0.0032 µM [inhibitor, full curve]

Structure (SMILES) | Potency
CCCSc1cc(N)cc([N+](=O)[O-])c1 | inconclusive: 39.8 µM [inhibitor, single point]
O=C(COC(=O)c1cccnc1)NC1CCCc2ccccc21 (stereo unspecified) | inconclusive: 1.26 µM [inhibitor, full curve]
Nc1nc(NC(=O)C(Cl)(Cl)Cl)nn1-c1ccccc1 | inactive
COCCNC(=O)COC(=O)c1ccc(S(=O)(=O)N2CCOCC2)cc1 | inconclusive: 25.1 µM [inhibitor, partial curve]
Cc1ccc2c(=O)c3ccccc3n(CCCN)c2c1C | active: 4.47 µM
O=C(CSCC(=O)Nc1nccs1)Nc1ccccc1 | inconclusive: 17.8 µM [inhibitor, single point]
CCC(=O)NC(c1ccco1)c1cc(Br)c2cccnc2c1O (stereo unspecified) | inactive
CCc1cc(-c2n[nH]c(C)c2-c2nc3ccccc3n2C)c(O)cc1O | inconclusive: 44.7 µM [inhibitor, single point]
CSCC(=O)NS(=O)(=O)c1ccc(C)cc1 | inconclusive: 3.16 µM [inhibitor, single point]
Oc1ccccc1/C=N/c1c(-c2ccco2)nc2ccccn12 | inconclusive: 44.7 µM [inhibitor, single point]
O=C1c2ccc3c4c(ccc(c24)C(=O)N1NC(=O)C(F)(F)F)CC3 | inconclusive: 35.5 µM [inhibitor, single point]
CCOc1ccc(NC(=S)NCC(c2cccnc2)N2CCOCC2)cc1 (stereo unspecified) | inconclusive: 14.1 µM [inhibitor, partial curve, poor fit]
CCCCNC(=O)Nc1nc(SCC(=O)OCC)n[nH]1 | inconclusive: 501 µM [inhibitor, partial curve, poor fit]
COc1ccc(N(C(C)C(=O)N/N=C/c2ccc(OC)c(OC)c2)S(C)(=O)=O)cc1 (stereo unspecified) | inconclusive: 35.5 µM [inhibitor, partial curve]
Nc1nnc(CC(=O)N/N=C/c2ccc(-c3cccc(C(=O)O)c3)o2)s1 | inactive
CCOc1cc(/C=N/NC(=O)c2ccncc2)cc(Cl)c1OS(C)(=O)=O | inconclusive: 0.0158 µM [inhibitor, full curve, poor fit]
S=C1NC[C@H](CC2CCCCC2)N1CCc1cccc2ccccc12 | inconclusive: 35.5 µM [inhibitor, single point]
CCOC(=O)C1=C(C)N=c2s/c(=C/c3ccc(OCC(=O)O)cc3)c(=O)n2C1c1cc(OC)c(OC)c(OC)c1 (stereo unspecified) | inconclusive: 37.7 µM [inhibitor, single point]
C=CCCCC | inactive
COc1ccccc1/C=N/NC(=O)CN(C1=NS(=O)(=O)c2ccccc21)c1ccccc1 | inconclusive: 8.91 µM [inhibitor, single point]
CN(C)c1ccc(C(CNC(=O)c2ccc(-c3ccccc3)cc2)N2CCOCC2)cc1 (stereo unspecified) | inactive
Cc1cc(C(=O)OCC(=O)NCc2ccco2)c(C)n1-c1ccccc1 | inconclusive: 39.8 µM [inhibitor, single point]

Structure (SMILES) | Potency
O=C(COC(=O)c1c2ccccc2cc2ccccc12)Nc1ncc(C(F)(F)F)cc1Cl | inconclusive: 44.7 µM [inhibitor, single point]
O=C(NC(Cc1ccccc1)C(=O)O)/C(=C/c1ccccc1)NC(=O)c1cccc(Br)c1 (stereo unspecified) | inactive
O=C(NCCc1csc(-c2ccccc2)n1)c1cccs1 | inconclusive: 44.7 µM [inhibitor, single point]
CC1(NC(=O)Cc2c(Cl)cccc2Cl)CCS(=O)(=O)C1 (stereo unspecified) | inactive
O=c1c(Cc2ccccc2)c(O)ccn1C1CCCCCCC1 | inconclusive: 0.005 µM [inhibitor, full curve, poor fit]
CC1(C)CCC(C)(C)c2cc(C(=O)Nc3ccc(C(=O)O)cc3)ccc21 | inactive
Cc1ccc(C(=O)c2ccc([N+](=O)[O-])cc2)cc1 | inactive
Cc1nonc1NC(=O)CSc1nnc(-c2ccoc2C)n1C | inconclusive: 11.2 µM [inhibitor, partial curve, poor fit]
O=C1C2C3C=CC(C3)C2C(=O)N1/N=C/c1cn(Cc2ccccc2)c2ccccc12 (stereo unspecified) | inconclusive: 39.8 µM [inhibitor, single point]
O=C(CN1C(=O)/C(=C/c2ccc(F)cc2)SC1=S)N1CCN(CCc2ccccn2)CC1 | inactive
CCc1ccc2[nH]c(=O)c(CN(Cc3ccccc3)Cc3nnnn3Cc3ccco3)cc2c1 | inconclusive: 39.8 µM [inhibitor, single point]
c1ccc(-c2nc(CSc3nnnn3-c3ccccc3)cs2)cc1 | inconclusive: 44.7 µM [inhibitor, single point]
CCOC(=O)C1=C(C)N(Cc2ccc(C(=O)O)cc2)C(=O)NC1c1ccc([N+](=O)[O-])cc1 (stereo unspecified) | inconclusive: 3.98 µM [inhibitor, single point]
COC(=O)[C@@]1(Cc2ccc(F)cc2)[C@H]2c3cc(C(=O)N4CCCC4)n(Cc4cc(F)cc5c4OCOC5)c3C[C@H]2CN1C(=O)c1ccccc1 | inconclusive: 39.8 µM [inhibitor, partial curve, poor fit]
N[C@H](CCC(=O)NCC(=O)O)C(=O)O | inconclusive: 22.4 µM [inhibitor, single point]
O=C1N=c2ccc([N+](=O)[O-])cc2=C1c1sc(=O)[nH]c1O | inactive
O=C([O-])[C@@H]1[O][Sb+]([O][Sb+]2[O][C@H]([C@H](O)CO)[C@H](O)[C@H](C(=O)[O-])[O]2)[O][C@H]([C@H](O)CO)[C@@H]1O | inactive
O=c1oc2ccccc2c(O)c1/C=N/c1ncccn1 | inconclusive: 28.2 µM [inhibitor, partial curve, poor fit]
O=C(Nc1cccc(F)c1)OC(CN1CCCCC1)C(F)(F)F (stereo unspecified) | inconclusive: 1.58 µM [inhibitor, full curve]
CCC(CC)C(=O)Nc1cc(=O)n(C)c(=O)n1C | inconclusive: 1 µM [inhibitor, single point]
O=C(CSC1=NC(=O)C(c2ccccc2)C(=O)N1)Nc1ccccc1[N+](=O)[O-] (stereo unspecified) | inactive
CC[C@@H]1/C=C(\C)C[C@H](C)C[C@H](OC)[C@H]2O[C@@](O)(C(=O)C(=O)N3CCCC[C@H]3C(=O)O[C@H](/C(C)=C/[C@@H]3CC[C@@H](O)[C@H](OC)C3)[C@H](C)[C@@H](O)CC1=O)[C@H](C)C[C@@H]2OC | inconclusive: 15.8 µM [inhibitor, partial curve]

Arranged by length of the SMILES (rising): four of the compounds above
Structure (SMILES) | Potency
O=C(CSCC(=O)Nc1nccs1)Nc1ccccc1 | inconclusive: 17.8 µM [inhibitor, single point]
Cc1nonc1NC(=O)CSc1nnc(-c2ccoc2C)n1C | inconclusive: 11.2 µM [inhibitor, partial curve, poor fit]
S=C1NC[C@H](CC2CCCCC2)N1CCc1cccc2ccccc12 | inconclusive: 35.5 µM [inhibitor, single point]
CCn1c2ccccc2c2cc(NC(=O)c3cc(OC)cc(OC)c3)ccc21 | inconclusive: 44.7 µM [inhibitor, single point]
